The results in this text go back to PubChem BioAssay AID2685 (National Center for Advancing Translational Sciences (NCATS), 2010).

The test is described as follows: qHTS Assay for Lipid Storage Modulators in Drosophila S3 Cells.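 For cell number change: cells counted by Cell Tracker Red CMTPX staining in the red channel.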 The settings on record: BODIPY lipid droplet fluorescence, 18-24 h; for cell number change: measured here: cell count max response, cells fed with added oleic acid. The method in brief: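 Drosophila S3 cells loaded with oleic acid (400 uM, as added) and compounds at several concentrations; lipid droplets imaged by 488-nm laser-scanning cytometry, 500–530 nm intensity and object ratio to cell channel. Percent activity normalized to 20 uM Triacsin C.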
(In general: In qHTS, concentration-response curves come from the screen itself.)

The mark [1] stands for this setting: measured here: cell number channel AC50, cells fed with added oleic acid.
[2] abbreviates: measured here: lipid fluorescence (Fed channel) AC50, cells fed with added oleic acid.

This is one part of the list. These are further read-outs of the screen, such as a control signal, another cell line or another target. No call is given for them. Most of these compounds were active or inconclusive in the main read-out, so they are no random draw. Words in brackets tell the shape of the fitted curve; partial curves, single points and poor fits give uncertain potencies.

As usually defined, the AC50 is the concentration at which the activity in the assay is half-maximal. A low value points to activity at low concentration. Turning to `Brc1ccc(-c2nn3c(Cc4ccccc4)nnc3s2)o1`, the cell number change came to 39.5%. Besides, under setting [1], the half-maximal activity concentration (AC50) was 0.291 µM [rising, full curve]. Besides, the AC50 under setting [2] is 0.366 µM [rising, full curve]. For `O=C(Nc1cccc(F)c1)Nc1ccc(Cl)cn1`, the cell number change was determined as 15.5%. As to `CSCCC(/C(O)=C(\C#N)c1nc2ccccc2[nH]1)N1C(=O)c2ccccc2C1=O` (stereo not drawn), the cell number change came out at 6.2%. Moreover, under setting [2], the AC50 was 5.17 µM [rising, single point]. On to `CNC(=S)NNc1nncc2ccccc12`, for which the cell number change is -21.2%. The concentration at half-maximal activity (AC50) under setting [2] was 29.1 µM [falling, single point].

For the compound `CCc1cc2c(NCCN3CCCCC3)ncnc2s1`, the cell number change is -62.9%. Besides, the AC50 under setting [1] was 32.6 µM [falling, single point]. The AC50 under setting [2] was 0.00461 µM [falling, full curve, poor fit]. As to `CCOC(=O)c1ccc(NC2OC(=O)c3ccccc32)cc1` (stereo not drawn), under setting [1], the half-maximal activity concentration (AC50) is 0.92 µM [rising, partial curve, poor fit]. For the compound `Cc1ccc(S(=O)(=O)CCc2nnc(NC(=O)C3CCCCC3)s2)cc1`, the cell number change worked out at 8.53%. On the same count and under the same terms, the result for `COc1ccc(S(=O)(=O)NC2CCCCC2)cc1C` reads -12.5%. Take `Nc1ccc(S(=O)(=O)Nc2nccc(/C=C/c3cccc(Br)c3)n2)cc1`: the cell number change came to 42.9%. The AC50 under setting [1] is 23.1 µM [rising, single point]. For the compound `CCOP(=O)(OCC)c1nc(-c2ccc(Cl)cc2)oc1NCc1ccccc1`, the cell number change is -53.7%. In addition, the AC50 under setting [2] is 32.6 µM [falling, single point]. Take `N#CCc1c(C#N)c(N)nc(N2CCCC(CO)C2)c1C#N` (stereo not drawn): the cell number change was -47.7%. Under setting [1], the AC50 was 29.1 µM [falling, single point]. On to `COc1cc(OC)cc(-n2nnnc2SCC(=O)N2CCCc3ccccc32)c1`, for which, under setting [2], the AC50 was 6.51 µM [rising, single point].

For `COc1ccc(CN2C(=O)c3ccccc3C2=O)cc1C(=O)Nc1ccc(C)cc1C`, the cell number change turned out to be 8.04%. Also, the half-maximal activity concentration (AC50) under setting [2] is 0.461 µM [rising, full curve]. Regarding `O=C(c1ccccc1)C(CCC(CN1CCOCC1)C(=O)c1ccccc1)CN1CCOCC1` (stereo not drawn), the cell number change was -50.5%. The half-maximal activity concentration (AC50) under setting [1] is 8.2 µM [falling, partial curve]. Moreover, under setting [2], the half-maximal activity concentration (AC50) was 8.2 µM [falling, partial curve]. For the compound `C=CCn1c(SCc2c(C)noc2C)nc2sc3c(c2c1=O)CCCCC3`, the cell number change was -36.5%. In addition, under setting [1], the half-maximal activity concentration (AC50) was 20.6 µM [falling, single point].

Regarding `Cc1ccc(S(=O)(=O)N2CCN(CC(=O)Nc3ccc([N+](=O)[O-])cc3)CC2)cc1C`, the cell number change is -16.7%.

In the case of `CC1CC(O)(Cc2ccccc2)C(C)CN1C` (stereo not drawn), the cell number change was -34.7%. Also, the AC50 under setting [1] was 4.61 µM [falling, full curve, poor fit]. In addition, the AC50 under setting [2] was 2.59 µM [falling, full curve]. As to `CCN1CCN(CCCNC(=O)c2cc3c(s2)-c2ccccc2OC3)CC1`, under setting [1], the AC50 was 0.13 µM [rising, full curve, poor fit].
